The values below are quoted from earlier work in patent publication US20200289431A1 (priority 2019, published 2020).

Each structure is given as a SMILES string.

Consider `C=C(C)[C@@H]1CCC(C)=C[C@H]1c1c(O)cc(CCCCC)cc1O` [Cannabidiol], for which the bioavailability via inhalation (inhalation, range) was 11 to 45%. Where the note is “oral”, the oral bioavailability is 13 to 19%.
